According to patent US10316021B2, “Heteroarylphenoxy benzamide kappa opioid ligands” (Pfizer Inc., priority 2016, dated 2019):
Read-outs that look alike come from different tables or passages of the source. Some entries share one result that the patent states for a list of compounds.

By UniProt entry, the sequences of proteins in these tests, tags left out. Where a name states a change or a piece, a line headed by the entry shows the natural chain unless it says otherwise.
UniProt P41145: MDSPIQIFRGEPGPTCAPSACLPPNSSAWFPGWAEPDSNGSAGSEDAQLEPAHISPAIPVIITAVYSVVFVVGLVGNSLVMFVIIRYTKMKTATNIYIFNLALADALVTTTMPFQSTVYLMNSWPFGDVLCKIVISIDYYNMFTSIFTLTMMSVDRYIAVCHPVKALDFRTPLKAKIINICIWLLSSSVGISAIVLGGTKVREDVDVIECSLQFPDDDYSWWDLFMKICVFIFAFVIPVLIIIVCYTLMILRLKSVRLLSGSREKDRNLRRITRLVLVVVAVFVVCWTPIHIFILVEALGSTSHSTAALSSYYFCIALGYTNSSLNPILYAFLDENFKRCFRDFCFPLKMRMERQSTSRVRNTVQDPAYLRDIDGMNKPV

Target: T1, human kappa opioid receptor (hKOR) (Homo sapiens, UniProt P41145)
T1 construct: expressed in transfected cells; host or cells: CHO cells
Assay: Kappa radioligand binding assay ([3H]diprenorphine, CHO cell membranes)
Method: Kappa and Mu Radioligand Binding Assay:
Binding assays on membranes from CHO cells expressing human kappa or mu opioid receptors were performed according to standard procedures. Frozen cell paste was homogenized in 50 mM Tris HCl buffer (pH 7.4 @ 4 degrees C.) containing 2.0 mM MgCl2 using a Polytron and spun in a centrifuge at 40,000 g for ten minutes. The final pellet was resuspended in assay buffer (50 mM Tris HCl buffer, pH 7.4, containing 1 mM EDTA, 5 mM MgCl2). Incubations were initiated by the addition of membranes to 96-well plates containing test drugs and [^3H]diprenorphine (0.6 nM final concentration for kappa opioid receptor and 0.5 nM final concentration for mu) in a final volume of 250 μl. Non-specific binding was determined by radioligand binding in the presence of a saturating concentration of naltrexone (10 μM). […] Membrane bound [^3H]diprenorphine levels were determined by liquid scintillation counting of the filterplates in Ecolume scintillation fluid. […] Ki values were calculated according to the Cheng Prusoff equation, Ki=IC50/(1+(L/Kd)), where L is the concentration of the radioligand used in the experiment and the Kd value is the dissociation constant for the radioligand (determined previously by saturation analysis).

## Cc1nn(C)cc1[C@@H]1CCCN1Cc1ccc(Oc2ccc(C(N)=O)cc2)cc1 [Example 11, 4-(4-{[(2S)-2-(1,3-Dimethyl-1H-pyrazol-4-yl)pyrrolidin-1-yl]methyl}phenoxy)benzamide]
  selectivity for KOR over MOR (hMOR Ki divided by hKOR Ki): 31-42 fold
Listed as Compound 11
  selectivity for KOR over MOR (hMOR Ki divided by hKOR Ki): greater than 30 fold
